Here are results for one molecule from publication PMC10729819.

Results are given in words; binding and its absence hold for the method and conditions named. In cells and extracts the contact can be indirect. Some results given as binding are weak or reduced against the parent protein; the word gives no strength. Sequences can lack the tags named with a protein.

This experiment concerns the target T1, GFP–S100A11 (S100 Ca2+-binding protein A11) (human) (UniProt P31949).
T1 sequence: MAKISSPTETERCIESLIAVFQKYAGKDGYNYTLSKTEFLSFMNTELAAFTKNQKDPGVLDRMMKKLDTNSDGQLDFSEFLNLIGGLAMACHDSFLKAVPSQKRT
The experiment in a line: co-IP; GFP-Trap beads on cleared lysates of clonal MCF-10A cells stably expressing GFP–S100A11, arrested in metaphase; mild lysis buffer (50 mM Tris-HCl pH 7.4, 150 mM NaCl, 0.5 mM EDTA, 10 mM NaF, 1 mM Na3VO4, 0.5% NP40); western blotting of the immunoprecipitates.

B1: leucine-glycine-asparagine repeat protein LGN (protein, UniProt P81274 1-684)
chain: MEENLISMREDHSFHVRYRMEASCLELALEGERLCKSGDCRAGVSFFEAAVQVGTEDLKTLSAIYSQLGNAYFYLHDYAKALEYHHHDLTLARTIGDQLGEAKASGNLGNTLKVLGNFDEAIVCCQRHLDISRELNDKVGEARALYNLGNVYHAKGKSFGCPGPQDVGEFPEEVRDALQAAVDFYEENLSLVTALGDRAAQGRAFGNLGNTHYLLGNFRDAVIAHEQRLLIAKEFGDKAAERRAYSNLGNAYIFLGEFETASEYYKKTLLLARQLKDRAVEAQSCYSLGNTYTLLQDYEKAIDYHLKHLAIAQELNDRIGEGRACWSLGNAYTALGNHDQAMHFAEKHLEISREVGDKSGELTARLNLSDLQMVLGLSYSTNNSIMSENTEIDSSLNGVRPKLGRRHSMENMELMKLTPEKVQNWNSEILAKQKPLIAKPSAKLLFVNRLKGKKYKTNSSTKVLQDASNSIDHRIPNSQRKISADTIGDEGFFDLLSRFQSNRMDDQRCCLQEKNCHTASTTTSSTPPKMMLKTSSVPVVSPNTDEFLDLLASSQSRRLDDQRASFSNLPGLRLTQNSQSVLSHLMTNDNKEADEDFFDILVKCQGSRLDDQRCAPPPATTKGPTVPDEDFFSLILRSQGKRMDEQRVLLQRDQNRDTDFGLKDFLQNNALLEFKNSGKKSADH
As for B1, the binding result is listed as “binds”.
